Test results reported in US8933270B2, “Use of docasatrienes, resolvins, and their stable analogs in the treatment of airway diseases and asthma” (The Brigham and Women's Hospital, Inc., priority 2002, dated 2015).

Assay: PD1 extraction from murine lung, LC-PDA-MS-MS quantitation
Parameters: species or system mice
Details: mean+/−SEM, n=3

SMILES: CC/C=C\C[C@H](O)\C=C/C=C/C=C/C(O)C/C=C\C/C=C\CCC(=O)O (stereo in doubt) [PD1, 10,17S-dihydroxy-4,7,15,19-cis-11,13-trans-docosahexaenoic acid]
- PD1 generated from endogenous sources during allergic airway inflammation: 2.01+/−0.68 ng/mouse lungs
